Measured values reported in PubChem BioAssay AID1688 (National Center for Advancing Translational Sciences (NCATS), 2009).
The campaign covered roughly 220,000 compounds. About 2,400 (1.1%) were called active. Inconclusive results, whose numbers are uncertain, are shown with a selection of clear calls. Calls follow the shape of the dose curve; as a rule, active = well fitted inhibition curve with a large enough effect; inconclusive = small, poorly fitted or top-dose-only effect, or effect the other way; inactive = no such curve, though single readings can be large or run the other way. Where the call is inconclusive, the potency comes from a doubtful curve fit.

Assay: qHTS Multiplex Assay to Identify Dual Action Probes in a Cell Model of Huntington: Aggregate Formation (GFP); also: nearly all actives have a fitted effect of over 60% in size
Settings: PC12 HttQ103-GFP aggregates, Acumen cytometry, 40 h; activity change, negative = inhibition: at 46.1 µM (top of the series) unless noted
Procedure, shortened: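 Steps: seed 1500 PC12 HTTQ103-GFP cells/well; add tebufenozide, 100 nM final; add compound titration; add ATPLite reagent; quantify GFP aggregates by laser scanning cytometry.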
% is scaled to controls: 0 for no effect and ±100 for the full control effect; potency is read from the fitted curve at half-maximal effect.

SMILES	Potency	activity change, negative = inhibition
CCOC(=O)C1=C(N)OC2=C(C(=O)CCC2)C1c1cccnc1 (stereo unspecified)	inactive	
Cc1ccc(/C=C/C(=O)N2CCc3ccccc3C2)cc1	inactive	
Cc1ccc(-c2nc3cccnc3o2)cc1NC(=O)COc1ccc(C(C)(C)C)cc1	inconclusive: 35.5 µM [inhibitor, single point]	
COc1ccc(C(=O)N2CCN(c3cccc(Cl)c3)CC2)cc1	inactive	
COc1ccccc1C(c1nnnn1Cc1ccco1)N1CCN(c2cccc(C)c2C)CC1 (stereo unspecified)	inconclusive: 35.5 µM [inhibitor, single point]	
Cc1ccccc1Cn1cccc1/C=C1/C(=N)N2C=CSC2=NC1=O	inconclusive: 15.8 µM [inhibitor, partial curve]	
CCOC(=O)c1[nH]c2ccc(OC)cc2c1NC(=S)N1CCN(c2cccc(Cl)c2)CC1	inactive	
O=C(NCCOc1ccccc1)c1cc(C(=O)NCCOc2ccccc2)cc([N+](=O)[O-])c1	inconclusive: 35.5 µM [inhibitor, single point]	
c1ccc2c(c1)CCCN2Cc1nnc2n1CCCCC2	inconclusive: 0.0004 µM [inhibitor, full curve, poor fit]	
Cc1ccc(S(=O)(=O)c2c(C)nn(C(C)(C)C)c2OC(=O)c2cccs2)cc1	inconclusive: 14.1 µM [inhibitor, single point]	
O=S(=O)(c1ccccc1)N1CCN(CC2CC3C=CC2C3)CC1 (stereo unspecified)		inactive: -19.6% [at 9.22 µM]
c1ccc(-c2csc(Nc3cccnc3)n2)nc1	inconclusive: 0.631 µM [inhibitor, full curve]	
O=C(COC(=O)c1ccc2ccccc2c1)NCCCc1ccccc1	inconclusive: 6.31 µM [inhibitor, single point]	
C/C(=N\NC(=O)c1cc(-c2ccncc2)nc2ccccc12)c1ccc(N2CCOCC2)cc1	inconclusive: 1.12 µM [inhibitor, single point]	
CCCCC1CCC(/C(N)=N/O)CC1 (stereo unspecified)	inconclusive: 35.5 µM [inhibitor, single point]	
CC(C(=O)Oc1ccc2c(c1)OCO2)N1C(=O)c2ccccc2C1=O (stereo unspecified)	inactive	
O=C(CC(C(=O)O)C1CCCO1)NCc1ccccc1 (stereo unspecified)	inconclusive: 0.126 µM [inhibitor, full curve, poor fit]	
COc1ccc(C2CC(=O)N(CCCN(C)CCc3ccc(OC)c(OC)c3)C2)cc1 (stereo unspecified)	inconclusive: 6.31 µM [activator, single point]	
O=c1[nH]c(=O)n(CCO)c2nnn(Cc3ccccc3)c12	inactive	
CC1(C)Cc2ccccc2C(NNC(=O)c2ccccn2)=N1	active: 17.8 µM	
O=C(Nc1ccc(-c2cn3ccccc3n2)cc1)c1ccc(Cl)cc1	active: 2.82 µM	
CS(=O)(=O)N(CC(=O)NCc1cccnc1)C1CCCCC1		inactive: 8% [at 9.22 µM]
Cc1ccc(S(=O)(=O)N(CC(=O)O)Cc2ccccc2)cc1	inconclusive: 1.41 µM [activator, partial curve]	

SMILES	Potency	activity change, negative = inhibition
COc1ccc(Cn2c(=O)n(Cc3ccco3)c(=N)c3c4c(sc32)COC(C)(C)C4)cc1	inconclusive: 35.5 µM [inhibitor, single point]	
Nc1ccc2cc3ccc(N)cc3nc2c1	active: 12.6 µM	
O=C(OCn1ncc(Br)c(Br)c1=O)c1ccccc1Cl	inconclusive: 35.5 µM [inhibitor, single point]	
CC(=O)O[C@H]1C(=O)[C@@]2(C)[C@H]([C@H](OC(=O)c3ccccc3)[C@]3(O)C[C@H](OC(=O)[C@H](O)C(NC(=O)c4ccccc4)c4ccccc4)C(C)=C1C3(C)C)[C@]1(OC(C)=O)CO[C@@H]1C[C@@H]2O (stereo partly specified)		inactive: -22.1% [at 9.22 µM]
S=C(Nc1cccc(Cl)c1)Nc1ccc2cn[nH]c2c1	inconclusive: 15.8 µM [inhibitor, single point]	
O=C1C2=C(NC(=S)NC2c2ccc(Cl)cc2)NC(c2ccc(Cl)cc2)N1c1ccc(Cl)cc1 (stereo unspecified)	inconclusive: 35.5 µM [inhibitor, single point]	
Cc1cc2c(c(=O)o1)C(CCC1CCCCC1)C(C#N)=C(N)O2 (stereo unspecified)		inactive: 4.33% [at 9.22 µM]
CCc1ccc(NC(=O)CN(c2cccc(C)c2)S(C)(=O)=O)cc1	inactive	
CCCN1Cc2cccc(C(=O)Nc3ccc(C)cc3)c2C1=O	inactive	
CCc1nc(SCC(=O)c2ccc3c(c2)OCCO3)c2ccccc2n1	inconclusive: 35.5 µM [activator, single point]	
CC(C)COC(=O)c1ccc(NC(=O)C2C3CCC(C3)C2C(=O)O)cc1 (stereo unspecified)	inconclusive: 25.1 µM [activator, single point]	
COc1ccc(/C=C/C(=O)Nc2cccc(S(=O)(=O)N3CCCC3)c2)cc1OC	inconclusive: 14.1 µM [inhibitor, single point]	
OC1(c2ccccc2Cl)NN=C2CCCCCN21 (stereo unspecified)	inconclusive: 7.08 µM [inhibitor, partial curve]	
O=C1c2ccc3c4c(ccc(c24)C(=O)N1CCCCO)C(=O)N(CCCCO)C3=O	active: 5.01 µM	
CC(C)CCN1C(=O)c2ccc(C(=O)NCc3ccco3)cc2C1=O	inactive	
COc1ccc(Cn2c(CCC(=O)Nc3ccccc3OC)nc3cccnc32)cc1	inconclusive: 5.62 µM [activator, single point]	
Clc1ccccc1-c1nnc2sc(C3COc4ccccc4O3)nn12 (stereo unspecified)	inconclusive: 11.2 µM [inhibitor, partial curve]	
O=C(Nc1ccc(-c2nnc3n2CCCCC3)cc1)c1cnccn1	inactive	
CCC(C)(C)n1nnnc1C(c1cccs1)N1CCN(c2nc3ccccc3s2)CC1 (stereo unspecified)	inconclusive: 12.6 µM [inhibitor, partial curve, poor fit]	
C=CCn1c(SCc2ccccc2)nnc1-c1cccnc1	inactive	
CC(C)Nc1nc(-c2ccncc2)nc(-c2ccc(Cl)cc2)c1C#N	inactive	
COc1ccc(C2CC(=O)C(C3NCCc4ccccc43)=C(O)C2n2cncn2)cc1 (stereo unspecified)	inactive	
CCOc1ccc(S(=O)(=O)N2CCN(c3ccccc3F)CC2)c2cccnc12	inconclusive: 35.5 µM [inhibitor, single point]	

Complete entries as entered above:
CC(=O)O[C@H]1C(=O)[C@@]2(C)[C@H]([C@H](OC(=O)c3ccccc3)[C@]3(O)C[C@H](OC(=O)[C@H](O)C(NC(=O)c4ccccc4)c4ccccc4)C(C)=C1C3(C)C)[C@]1(OC(C)=O)CO[C@@H]1C[C@@H]2O (stereo partly specified) is entered as activity change, negative = inhibition: inactive: -22.1% [at 9.22 µM]
O=S(=O)(c1ccccc1)N1CCN(CC2CC3C=CC2C3)CC1 (stereo unspecified) is entered as activity change, negative = inhibition: inactive: -19.6% [at 9.22 µM]
